Assay results published in paper PMC7042299.
No constants are given. Whether binding was seen depends on the method and setting. Binding seen in cells or lysates may run through a third protein. Some results given as binding are weak or reduced against the parent protein; the word gives no strength. Where a sequence is shown, tags or fusion partners need not be part of it.

Target: T1, T7-DHX34 wild-type (human) (UniProt Q14147)
T1 sequence: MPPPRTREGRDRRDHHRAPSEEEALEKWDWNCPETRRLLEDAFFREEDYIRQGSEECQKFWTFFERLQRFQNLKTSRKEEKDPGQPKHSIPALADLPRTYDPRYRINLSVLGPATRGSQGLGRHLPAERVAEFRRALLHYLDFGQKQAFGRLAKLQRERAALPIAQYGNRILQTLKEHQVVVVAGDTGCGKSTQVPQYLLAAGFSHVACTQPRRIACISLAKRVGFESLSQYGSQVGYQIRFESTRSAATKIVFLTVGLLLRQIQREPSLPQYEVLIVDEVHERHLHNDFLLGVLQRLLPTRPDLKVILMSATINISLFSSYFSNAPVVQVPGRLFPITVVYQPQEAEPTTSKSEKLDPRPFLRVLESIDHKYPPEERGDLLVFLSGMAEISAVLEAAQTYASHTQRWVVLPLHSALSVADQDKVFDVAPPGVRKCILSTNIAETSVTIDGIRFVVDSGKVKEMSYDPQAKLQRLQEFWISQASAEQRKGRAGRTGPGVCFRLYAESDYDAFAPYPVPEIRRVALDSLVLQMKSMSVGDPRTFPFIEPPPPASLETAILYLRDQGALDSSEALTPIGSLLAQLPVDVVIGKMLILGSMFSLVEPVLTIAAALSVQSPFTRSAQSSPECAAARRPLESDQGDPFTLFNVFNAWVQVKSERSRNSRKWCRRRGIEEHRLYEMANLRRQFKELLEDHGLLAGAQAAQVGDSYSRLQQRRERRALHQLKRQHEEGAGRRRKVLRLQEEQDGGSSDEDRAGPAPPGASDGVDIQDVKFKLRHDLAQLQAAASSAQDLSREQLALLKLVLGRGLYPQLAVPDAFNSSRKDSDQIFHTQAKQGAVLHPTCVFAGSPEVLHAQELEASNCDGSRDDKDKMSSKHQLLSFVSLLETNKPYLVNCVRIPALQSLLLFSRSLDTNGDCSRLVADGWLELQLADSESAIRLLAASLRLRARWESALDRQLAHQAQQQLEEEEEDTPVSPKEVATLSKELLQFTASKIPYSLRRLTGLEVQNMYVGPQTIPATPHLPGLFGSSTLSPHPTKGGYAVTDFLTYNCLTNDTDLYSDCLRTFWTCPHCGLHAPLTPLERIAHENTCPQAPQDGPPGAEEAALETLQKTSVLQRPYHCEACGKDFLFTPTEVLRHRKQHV
Experiment: co-IP; HEK293T cells co-transfected with T7-DHX34 (wild type or variant) and FLAG-UPF1; anti-T7 immunoprecipitates probed for UPF1

B1: FLAG-UPF1 (pcIneo-FLAG-UPF1) (protein, UniProt Q92900 1-1129)
chain: MSVEAYGPSSQTLTFLDTEEAELLGADTQGSEFEFTDFTLPSQTQTPPGGPGGPGGGGAGGPGGAGAGAAAGQLDAQVGPEGILQNGAVDDSVAKTSQLLAELNFEEDEEDTYYTKDLPIHACSYCGIHDPACVVYCNTSKKWFCNGRGNTSGSHIVNHLVRAKCKEVTLHKDGPLGETVLECYNCGCRNVFLLGFIPAKADSVVVLLCRQPCASQSSLKDINWDSSQWQPLIQDRCFLSWLVKIPSEQEQLRARQITAQQINKLEELWKENPSATLEDLEKPGVDEEPQHVLLRYEDAYQYQNIFGPLVKLEADYDKKLKESQTQDNITVRWDLGLNKKRIAYFTLPKTDSGNEDLVIIWLRDMRLMQGDEICLRYKGDLAPLWKGIGHVIKVPDNYGDEIAIELRSSVGAPVEVTHNFQVDFVWKSTSFDRMQSALKTFAVDETSVSGYIYHKLLGHEVEDVIIKCQLPKRFTAQGLPDLNHSQVYAVKTVLQRPLSLIQGPPGTGKTVTSATIVYHLARQGNGPVLVCAPSNIAVDQLTEKIHQTGLKVVRLCAKSREAIDSPVSFLALHNQIRNMDSMPELQKLQQLKDETGELSSADEKRYRALKRTAERELLMNADVICCTCVGAGDPRLAKMQFRSILIDESTQATEPECMVPVVLGAKQLILVGDHCQLGPVVMCKKAAKAGLSQSLFERLVVLGIRPIRLQVQYRMHPALSAFPSNIFYEGSLQNGVTAADRVKKGFDFQWPQPDKPMFFYVTQGQEEIASSGTSYLNRTEAANVEKITTKLLKAGAKPDQIGIITPYEGQRSYLVQYMQFSGSLHTKLYQEVEIASVDAFQGREKDFIILSCVRANEHQGIGFLNDPRRLNVALTRARYGVIIVGNPKALSKQPLWNHLLNYYKEQKVLVEGPLNNLRESLMQFSKPRKLVNTINPGARFMTTAMYDAREAIIPGSVYDRSSQGRPSSMYFQTHDQIGMISAGPSHVAAMNIPIPFNLVMPPMPPPGYFGQANGPAAGRGTPKGKTGRGGRQKNRFGLPGPSQTNLPNSQASQDVASQPFSQGALTQGYISMSQPSQMSQPGLSQPELSQDSYLGDEFKSQIDVALSQDSTYQGERAYQHGGVTGLSQY
- binding: binds
